From US20230074615A1
Substitutions are numbered along the chain they refer to. No constants are given. Whether binding was seen depends on the method and setting. Binding can be weak; no strength is given.

Amino acid sequences for entries named in this document (tags omitted). A change or cut given only in a name is not applied to a line headed by its entry. Residues count along the entry.
UniProt P14780: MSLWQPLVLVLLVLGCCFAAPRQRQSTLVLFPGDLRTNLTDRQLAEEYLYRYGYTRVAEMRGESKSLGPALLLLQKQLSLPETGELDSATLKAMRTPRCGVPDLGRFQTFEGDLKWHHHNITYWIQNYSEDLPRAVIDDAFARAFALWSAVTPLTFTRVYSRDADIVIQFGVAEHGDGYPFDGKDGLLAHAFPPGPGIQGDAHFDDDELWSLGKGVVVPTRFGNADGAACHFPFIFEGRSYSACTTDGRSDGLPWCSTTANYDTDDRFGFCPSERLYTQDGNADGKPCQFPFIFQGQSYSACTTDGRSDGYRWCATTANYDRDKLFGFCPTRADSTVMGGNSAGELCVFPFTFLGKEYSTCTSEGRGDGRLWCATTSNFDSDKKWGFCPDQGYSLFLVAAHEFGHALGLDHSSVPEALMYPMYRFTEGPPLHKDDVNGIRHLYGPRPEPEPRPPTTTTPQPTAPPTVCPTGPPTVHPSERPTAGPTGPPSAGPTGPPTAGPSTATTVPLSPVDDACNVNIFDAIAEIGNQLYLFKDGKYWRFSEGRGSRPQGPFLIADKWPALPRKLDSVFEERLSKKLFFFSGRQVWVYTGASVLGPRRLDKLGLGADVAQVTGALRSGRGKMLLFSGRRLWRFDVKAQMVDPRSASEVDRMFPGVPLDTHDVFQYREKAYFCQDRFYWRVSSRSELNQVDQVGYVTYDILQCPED
UniProt P16035, residues 27-153: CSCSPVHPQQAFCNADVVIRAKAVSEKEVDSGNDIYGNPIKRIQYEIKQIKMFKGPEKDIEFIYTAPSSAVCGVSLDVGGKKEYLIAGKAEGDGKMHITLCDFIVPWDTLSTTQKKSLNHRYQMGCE

Key:
[1] = molecular target: catalytic domain of human MMP-9 (cdMMP-9) (human) (UniProt P14780); assay: competitive ELISA on immobilized cdMMP-9; nTIMP-2 varied, displaced molecule Fab L13
[2] = molecular target: catalytic domain of human MMP-9 (cdMMP-9) (human) (UniProt P14780); assay: competitive ELISA on immobilized cdMMP-9, nTIMP-2 concentration varied against Fab L13
[3] = molecular target: catalytic domain of human MMP-9 (cdMMP-9) (human) (UniProt P14780); assay: biolayer interferometry and ELISA
[4] = molecular target: catalytic domain of human MMP-9 (cdMMP-9) (human) (UniProt P14780); assay: biolayer interferometry and FRET inhibition assay

**Q.** Which binding [1] does the source give for nTIMP-2 (from UniProt P16035 27-153) here?
**A.** binds

**Q.** What about the binding [2] of the same molecule?
**A.** binds

B1: anti-MMP9 Fab H3 (Fab, V domains shown)
VH: EVQLVESGGGLVQPGGSLRLSCAASGFNIYSSSMHWVRQAPGKGLEWVAYIYSSYGYTYYADSVKGRFTISADTSKNTAYLQMNSLRAEDTAVYYCARRFEPGLLKRNKRWISYTLCEAGYGMDYWGQGTLVTVSS
VL: DIQMTQSPSSLSASVGDRVTITCRASQSVSSAVAWYQQKPGKAPKLLIYSASSLYSGVPSRFSGSRSGTDFTLTISSLQPEDFATYYCQQASHLITFGQGTKVEIKR
**Q.** For B1, which binding [3] is on record?
**A.** binds

B2: anti-MMP9 Fab L13 (Fab, V domains shown)
VH: EVQLVESGGGLVQPGGSLRLSCAASGFNISSSYIHWVRQAPGKGLEWVASISSSSGYTSYADSVKGRFTISADTSKNTAYLQMNSLRAEDTAVYYCARKYMVFGTRMGWVEHTDFAGQGYYAMDYWGQGTLVTVSS
VL: B1 VL with A91Y, S92A, H93A
**Q.** With B2 as the molecule, how does the binding [3] read?
**A.** binds

B3: anti-MMP9 Fab H25 (Fab, V domains shown)
VH: EVQLVESGGGLVQPGGSLRLSCAASGFNIYSSSMHWVRQAPGKGLEWVASIYSYYGYTYYADSVKGRFTISADTSKNTAYLQMNSLRAEDTAVYYCARCKLYTSYMIPVGSDSVNRCMSSYGMDYWGQGTLVTVSS
VL: DIQMTQSPSSLSASVGDRVTITCRASQSVSSAVAWYQQKPGKAPKLLIYSASSLYSGVPSRFSGSRSGTDFTLTISSLQPEDFATYYCQQGGGASLITFGQGTKVEIKR
**Q.** For B3, which binding [3] is on record?
**A.** binds

B4: anti-MMP9 IgG H3 (antibody, V domains shown)
VH: B1 VH
VL: B1 VL
**Q.** How did the binding [4] turn out when B4 was run?
**A.** binds

B5: anti-MMP9 IgG L13 (antibody, V domains shown)
VH: B2 VH
VL: B1 VL with A91Y, S92A, H93A
**Q.** With B5 as the molecule, how does the binding [4] read?
**A.** binds
